Some of these results come from one statement about several compounds together. For part of these data: At least one compound was matched to its structure with a doubt left.
Key:
COS-1 cells = experiment: Agonist-induced [InsP3] change in COS-1 cells expressing FIRE-1 or FIRE-3 (confocal FRET); format: cell-based; details: for maximal increase in the F530/F488 ratio: ATP 10 μM or acetylcholine 5 μM, COS-1 cells expressing FIRE-1 or FIRE-3; for corresponding free [InsP3]: based on the calibrations in FIG. 2A
[1] = system: adult cat ventricular myocytes; experiment: Agonist- or InsP3 perfusion-induced [InsP3] changes in adult ventricular myocytes expressing FIRE-1; format: cell-based; details: ET-1 100 nM, Phe 10 μM, Ang II 10 μM; assuming the Kd from FIG. 2
Procedure: Adult cat ventricular myocytes were isolated, seeded on laminin-coated glass cover slips, and non-adherent cells were removed after 30-45 min. Culture media consisted of serum-free medium 199 (M199) supplemented with (in mM) 25 NaHCO3, 5 creatine, 5 taurine, 2 carnitine, and 0.1 ascorbic acid. Insulin (100 U/ml), 5′-bromo-2′-deoxyuridine (31 μg/ml), BSA (0.2%) and 2% penicillin-streptomycin were also added to the media. Myocytes were then exposed to recombinant replication-deficient adenovirus expressing the FIRE-1 sensor for 2 hr at an multiplicity if infection (“MOI”) of 1-10. Myocytes were subsequently cultured for 24-36 hrs and media was changed twice daily.
A cover slip with cells expressing the FIRE probe was positioned to the stage of an inverted microscope equipped with an x40 1.3 NA oil immersion objective lens. Cells were continuously superfused with Tyrode solution (140 mM NaCl, 5 mM KCl, 2 mM CaCl2, 1 mM MgCl2, 10 mM glucose, and 10 mM Hepes; pH 7.4 (adjusted with NaOH)). Changes in FRET were measured with laser scanning confocal microscopy (Radiance 2000 MP, Bio-Rad, UK). […] CFP and YFP emissions were measured at wavelengths 488 (F488) and >530 nm (F530), respectively. Changes in InsP3 activity were defined as the relative change in the ratio F530/F488 of the background corrected fluorescence intensities measured at the emission wavelengths of CFP and YFP. […]

Row | Molecule | maximal increase in the F530/F488 ratio (COS-1 cells) | corresponding free [InsP3] (COS-1 cells) | increases of [InsP3]i [1]
1 | CC(=O)OCC[N+](C)(C)C [acetylcholine] | 5-6% | 20 to 50 nM | –
2 | Nc1ncnc2c1ncn2[C@@H]1O[C@H](COP(=O)(O)OP(=O)(O)OP(=O)(O)O)[C@@H](O)[C@H]1O [ATP] | 5-6% | 20 to 50 nM | –
3 | CNC[C@H](O)c1cccc(O)c1 [Phe, phenylephrine] | – | – | 10 to 30 nM
4 | endothelin-1 [ET-1] | – | – | 10 to 30 nM
